According to paper doi:10.1101/2024.07.08.601072:
These are yes or no findings as the source states them, for the method shown. Some results given as binding are weak or reduced against the parent protein; the word gives no strength. For some assays here: Tags and fused reporters may be left off the sequences shown.

How the values were obtained:
[1] = molecular target: Tom1p (endogenous) (S. cerevisiae (endogenous in yeast)) (UniProt Q03280); experiment: far-Western, overlay or dot blot
[2] = molecular target: Tom1p HECT domain (2850-3268) (S. cerevisiae) (UniProt Q03280); experiment: SEC

Binder | binding [1] | binding [2]
GST-Spt6p^tSH2 (WT) (domain or fragment, UniProt P23615 1223-1451) SIWDLKQELEDAEEERKLMMAEARAKRTHRVINHPYYFPFNGRQAEDYLRSKERGEFVIRQSSRGDDHLVITWKLDKDLFQHIDIQELEKENPLALGKVLIVDNQKYNDLDQIIVEYLQNKVRLLNEMTSSEKFKSGTKKDVVKFIEDYSRVNPNKSVYYFSLNHDNPGWFYLMFKINANSKLYTWNVKLTNTGYFLVNYNYPSVIQLCNGFKTLLKSNSSKNRMNNYR | binds | –
Tom1p HECT domain (2850-3268) (domain or fragment, UniProt Q03280 2850-3268) NLFFPFTDAHKKLLNQMIRSNPKLMSGPFALLVKNPKVLDFDNKRYFFNAKLKSDNQERPKLPITVRREQVFLDSYRALFFKTNDEIKNSKLEITFKGESGVDAGGVTREWYQVLSRQMFNPDYALFLPVPSDKTTFHPNRTSGINPEHLSFFKFIGMIIGKAIRDQCFLDCHFSREVYKNILGRPVSLKDMESLDPDYYKSLVWILENDITDIIEETFSVETDDYGEHKVINLIEGGKDIIVTEANKQDYVKKVVEYKLQTSVKEQMDNFLVGFYALISKDLITIFDEQELELLISGLPDIDVDDWKNNTTYVNYTATCKEVSYFWRAVRSFDAEERAKLLQFVTGTSKVPLNGFKELSGVNGVCKFSIHRDFGSSERLPSSHTCFNQLNLPPYESYETLRGSLLLAINEGHEGFGLA | – | no binding
